Experimental data published in patent publication US6800652B2, “Diaryl compounds” (Pfizer Inc., priority 2002, dated 2004).
Some results were stated once for a whole list of compounds, not compound by compound.

By UniProt entry, the sequences of proteins in these tests, tags left out.
UniProt P31645, whole entry: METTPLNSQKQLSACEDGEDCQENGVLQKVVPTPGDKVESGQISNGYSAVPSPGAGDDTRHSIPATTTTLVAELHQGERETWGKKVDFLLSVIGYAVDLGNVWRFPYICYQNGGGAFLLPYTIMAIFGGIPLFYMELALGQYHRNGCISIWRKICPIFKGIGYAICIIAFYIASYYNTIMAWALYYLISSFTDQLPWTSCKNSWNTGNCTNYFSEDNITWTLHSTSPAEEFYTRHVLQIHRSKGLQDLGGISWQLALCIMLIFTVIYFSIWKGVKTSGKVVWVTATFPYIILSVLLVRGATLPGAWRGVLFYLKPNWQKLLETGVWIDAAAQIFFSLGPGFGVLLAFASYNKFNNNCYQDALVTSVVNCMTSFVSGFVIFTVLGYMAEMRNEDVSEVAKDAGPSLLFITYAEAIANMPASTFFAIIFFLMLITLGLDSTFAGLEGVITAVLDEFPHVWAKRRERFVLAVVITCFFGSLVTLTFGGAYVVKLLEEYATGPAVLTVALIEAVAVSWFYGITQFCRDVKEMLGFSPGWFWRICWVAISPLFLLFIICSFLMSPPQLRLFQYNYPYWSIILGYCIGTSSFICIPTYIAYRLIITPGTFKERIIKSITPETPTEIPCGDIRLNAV
UniProt Q01959, whole entry: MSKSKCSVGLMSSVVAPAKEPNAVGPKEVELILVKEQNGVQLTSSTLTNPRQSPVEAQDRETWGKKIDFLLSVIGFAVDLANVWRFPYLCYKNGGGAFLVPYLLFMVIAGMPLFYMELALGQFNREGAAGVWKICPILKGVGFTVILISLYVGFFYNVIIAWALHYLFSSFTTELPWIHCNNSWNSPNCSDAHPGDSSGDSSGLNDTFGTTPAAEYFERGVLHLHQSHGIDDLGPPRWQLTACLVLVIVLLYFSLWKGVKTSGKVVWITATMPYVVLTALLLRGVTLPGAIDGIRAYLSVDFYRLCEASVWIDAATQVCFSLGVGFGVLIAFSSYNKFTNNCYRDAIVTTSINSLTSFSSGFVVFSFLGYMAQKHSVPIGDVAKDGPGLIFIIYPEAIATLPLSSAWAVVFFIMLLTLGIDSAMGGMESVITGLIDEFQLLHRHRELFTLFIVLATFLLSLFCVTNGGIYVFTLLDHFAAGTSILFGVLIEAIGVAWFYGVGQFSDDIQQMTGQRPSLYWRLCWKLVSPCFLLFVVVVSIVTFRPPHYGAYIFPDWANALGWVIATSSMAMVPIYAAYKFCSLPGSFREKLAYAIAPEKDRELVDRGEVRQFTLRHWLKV
UniProt P23975, whole entry: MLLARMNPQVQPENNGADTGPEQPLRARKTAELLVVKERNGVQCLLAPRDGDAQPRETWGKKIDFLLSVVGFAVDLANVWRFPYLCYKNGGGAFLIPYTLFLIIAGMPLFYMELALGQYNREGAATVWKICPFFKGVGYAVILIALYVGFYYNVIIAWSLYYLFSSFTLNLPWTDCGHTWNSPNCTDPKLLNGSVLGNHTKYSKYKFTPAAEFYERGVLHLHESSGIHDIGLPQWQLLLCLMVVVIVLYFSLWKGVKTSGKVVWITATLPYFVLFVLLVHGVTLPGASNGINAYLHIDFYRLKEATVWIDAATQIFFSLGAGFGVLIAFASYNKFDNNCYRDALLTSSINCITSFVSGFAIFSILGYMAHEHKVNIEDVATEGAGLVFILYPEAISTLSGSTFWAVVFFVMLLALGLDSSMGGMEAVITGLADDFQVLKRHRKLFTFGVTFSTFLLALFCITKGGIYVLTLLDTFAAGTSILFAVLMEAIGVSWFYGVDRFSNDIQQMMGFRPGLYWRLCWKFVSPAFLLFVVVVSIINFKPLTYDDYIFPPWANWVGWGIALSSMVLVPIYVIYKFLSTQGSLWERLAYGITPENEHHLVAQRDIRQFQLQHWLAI

Legend:
Assay type in all cases: cell-based
[1] = biological target: T1, human serotonin transporter (hSERT) (Homo sapiens, UniProt P31645); assay: Inhibition of 3H-serotonin uptake in HEK-293 cells stably transfected with hSERT; conditions: HEK-293 hSERT cells, 3H-5HT 50 nM, 5 min incubation, room temperature; read-out: SRI (serotonin re-uptake inhibition) IC50
T1 construct: expressed in transfected cells
Method: A number of compounds were tested for biological activity by their ability to inhibit the uptake of serotonin by human serotonin transporters as follows.
(§1) Human embryonic kidney cells (HEK-293) stably transfected with either the human serotonin transporter (hSERT), noradrenaline transporter (hNET) or dopamine transporter (hDAT) were cultured under standard cell culture techniques (cells were grown at 37° C. and 5% CO2 in DMEM-culture media (supplemented with 10% dialysed foetal calf serum (FCS), 2 mM I-glutamine and 250 μg/ml geneticin)). Cells were harvested for the assay to yield a cell suspension of 750,000 cells/ml.
(§2) All test compounds were dissolved in 100% DMSO and diluted down in assay buffer to give appropriate test concentrations. Assays were carried out in 96-well filter bottom plates. Cells (7500 cells/assay well) were pre-incubated in standard assay buffer containing either test compound, standard inhibitor or compound vehicle (1% DMSO) for 5 minutes. Reactions were started by addition of either ^3H-Serotonin, ^3H-Noradrenaline or ^3H-Dopamine substrates. All reactions were carried out at room temperature in a shaking incubator. Incubation times were 5 minutes for the hSERT and hDAT assays and 15 minutes for the hNET assay. Reactions were terminated by removal of the reaction mixture using a vacuum manifold followed by rapid washing with ice cold assay buffer. The quantity of ^3H-substrate incorporated into the cells was then quantified.
(§3) Assay plates were dried in a microwave oven, scintillation fluid added, and radioactivity measured. Potency of test compounds was quantified as IC50 values (concentration of test compound required to inhibit the specific uptake of radiolabelled substrate into the cells by 50%).
(§4) (iii) Standard Assay Buffer Composition
(§5) Note: The pH of the buffer was adjusted to 7.40 with 1M NaOH before addition of CaCl2 and pargyline.

[2] = biological target: T2, dopamine transporter (hDAT) (Homo sapiens, UniProt Q01959); assay: Inhibition of 3H-dopamine uptake in HEK-293 cells stably transfected with hDAT; conditions: hSERT versus hDAT
T2 construct: expressed in transfected cells
Method: as §1, §2, §3, §4, §5

[3] = biological target: T3, noradrenaline transporter (hNET) (Homo sapiens, UniProt P23975); assay: Inhibition of 3H-noradrenaline uptake in HEK-293 cells stably transfected with hNET; conditions: hSERT versus hNET
T3 construct: expressed in transfected cells
Method: as §1, §2, §3, §4, §5

Row | SMILES | IC50 [1] | Selectivity: potency in inhibition of serotonin re-uptake versus dopamine re-uptake [2] | Selectivity: potency in inhibition of serotonin re-uptake versus noradrenaline re-uptake [3]
1 | CSc1ccc(Cc2ccncc2CN(C)C)cc1 [Example 8, N,N-dimethyl-N-({4-[4-(methylsulfanyl)benzyl]-3-pyridinyl}methyl)amine] | ≤ 25 nM | more than 100 fold | more than 100 fold
2 | CSc1ccc(Cc2cnccc2CN(C)C)cc1 [Example 6, N,N-dimethyl-N-({3-[4-(methylsulfanyl)benzyl]-4-pyridinyl}methyl)amine] | ≤ 25 nM | more than 100 fold | more than 100 fold
3 | CSc1ccc(Sc2ccncc2CN(C)C)cc1 [Example 2, N,N-Dimethyl-N-[(4-{[4-(methylsulfanyl)phenyl]sulfanyl}-3-pyridinyl)methyl]amine] | ≤ 25 nM | more than 100 fold | more than 100 fold
4 | CNCc1ccncc1Sc1ccc(SC)cc1 [Example 3, N-Methyl-N-[(3-{[4-(methylsulfanyl)phenyl]sulfanyl}-4-pyridinyl)methyl]amine] | ≤ 25 nM | more than 100 fold | more than 100 fold
5 | CNCc1ccncc1Cc1ccc(SC)cc1 [Example 5, N-methyl-N-({3-[4-(methylsulfanyl)benzyl]-4-pyridinyl}methyl)amine] | ≤ 25 nM | more than 100 fold | more than 100 fold
6 | CNCc1cnccc1Cc1ccc(SC)cc1 [Example 7, N-methyl-N-({4-[4-(methylsulfanyl)benzyl]-3-pyridinyl}methyl)amine] | ≤ 25 nM | more than 100 fold | more than 100 fold
7 | CNCc1cnccc1Sc1ccc(SC)cc1 [Example 1, N-Methyl-N-[(4-{[4-(methylsulfanyl)phenyl]sulfanyl}-3-pyridinyl)methyl]amine] | ≤ 25 nM | more than 100 fold | more than 100 fold
8 | CSc1ccc(Sc2cnccc2CN(C)C)cc1 [Example 4, N,N-Dimethyl-N-[(3-{[4-(methylsulfanyl)phenyl]sulfanyl}-4-pyridinyl)methyl]amine] | ≤ 25 nM | more than 100 fold | more than 100 fold
